Measurements as given in US20160015828A1 (AbbVie / Abbott, published 2016).
Where a chain is given by its changes, count along the chain named. These are yes or no findings as the source states them, for the method shown. Some entries that bind do so weakly or less than the wild type.

Protein sequences, listed by entry. Tags and fused reporters are not part of them. Lines headed by an entry give the natural chain unless they say otherwise; changes in a name come on top.
UniProt Q9NYJ7: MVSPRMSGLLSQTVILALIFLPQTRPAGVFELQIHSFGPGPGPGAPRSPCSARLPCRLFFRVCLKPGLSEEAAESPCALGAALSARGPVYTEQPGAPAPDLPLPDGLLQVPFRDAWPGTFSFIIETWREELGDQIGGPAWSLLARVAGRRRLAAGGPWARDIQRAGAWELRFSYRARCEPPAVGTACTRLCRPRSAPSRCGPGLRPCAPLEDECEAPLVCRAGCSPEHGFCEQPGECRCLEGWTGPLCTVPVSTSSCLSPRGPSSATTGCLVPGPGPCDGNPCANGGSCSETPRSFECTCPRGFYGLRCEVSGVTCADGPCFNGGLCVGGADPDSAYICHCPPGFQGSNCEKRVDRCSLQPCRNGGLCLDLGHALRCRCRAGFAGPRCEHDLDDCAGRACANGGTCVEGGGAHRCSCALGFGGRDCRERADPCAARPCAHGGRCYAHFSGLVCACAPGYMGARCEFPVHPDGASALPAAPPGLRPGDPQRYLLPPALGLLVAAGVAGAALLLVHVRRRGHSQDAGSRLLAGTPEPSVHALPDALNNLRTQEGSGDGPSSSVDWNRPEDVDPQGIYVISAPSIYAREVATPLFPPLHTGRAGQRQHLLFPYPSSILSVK

B1: SC16.107 (antibody, V domains shown)
VH: EVQLQQSGPELVKPGASVKMSCKASGYTFTNYVMHWVKQKPGQGLEWIGYINPYNDGTKYNEKFKGKATLTSDKSSTTAYMALSSLTSEDSAVYYCAVAYYSNWGFAYWGQGTLVTVSA
VL: DIVMTQSHKFMSTSVGDRVSITCKASQDVNTAVGWYQQKPGQSPKLLIYSASYRYTGVPDRFTGSGSGTDFTFTISSVQAEDLAVYYCQQHYSSPYTFGGGTKVEIK
B2: SC16.109 (antibody, V domains shown)
VL: QIVLTQSPAIMSASPGEKVTMTCSASSSVSYMYWYQQKPGSSPRLLIYDTSNLASGVPVRFSGSGSGTSFSLTISRMEAEDTATYYCQEWSGNPLTFGDGTKLELK
V domain: QIQLVQSGPELKKPGETVKISCKASGYTFTNYGMNWVKQAPGKGLKWMGWINTYTGEPAYADDFKGRFAFSLETSASAAYLQINNLKNEDTATFFCANMRPTRGFAYWGQGTLGTVSA
B3: SC16.110 (antibody, V domains shown)
VH: EVQLQQSGPGLVRTGASVKISCKASGYSFTGYYMHWVKQSHGKSLEWIGYISCYNGATTYNQNFKGKATFIVDTSSSTAYMQFNSLTSEDSAVYYCARSDGGHAMDYWGQGTSVTVSS
VL: NIVMTQTPKFLLVSAGDRVTITCKASQSVSNDVAWYQQKPGQSPKLLIYYASNRYTGVPDRFTGSGYGTDFTFTISTVQAEDLAVYFCQQDYSSPPTFGGGTKLEIK
B4: SC16.111 (antibody, V domains shown)
VH: EVQLQQSGPELEKPGASVKISCKASGYSFTGYNMNWVKQSNGKSLEWIGNIDPYYGGSSYKQKFEGKATLTVDKSSSTAYMQLKSLTSEDSAVYYCARGGSNFFDYWGQGTTLTVSS
VL: DIQMTQSPASLAASVGETVTITCRASENIYYSLAWYQQKQGKSPQLLIYNANSLEDGVPSRFSGSGSGTQYSMKINSMQPEDTATYFCKQTYDVPLTFGAGTKLELK
B5: SC16.114 (antibody, V domains shown)
VH: EVQLQQSGAELVKPGASVKLSCTASGFNIKDTYIHWVKQRPEQGLEWIGRIDPANGNTKYDPKFQGKATITPDTSSNTAYLQLSSLTSEDTAVYYCARSWRNYGSSFWYFDVWGAGTTVTVSS
VL: QIVLSQSPAILSASPGEKVTMTCRASSSVSYMHWYQQKPGSSPKPWIYATSNLASGVPARFSGSGSGTSYSLTISRVEAEDAATYYCQQWSSNPYTFGGGTKLEIK
B6: SC16.116 (antibody, V domains shown)
VH: QVQLKQSGPGRVQPSQSLSITCTVSGFSLTSNGVHWVRQSPGKGLEWLGVLWSGGSTDYNAAFISRLSISKDNYKSQVFFKMNSLQANDTAIYYCARNNNRYGAMDYWGQGTSVTVSS
VL: DIVMTQSPSSLTVTAGEKVTMSCTSSQSLLTSGNQKNYLTWYQQKPGQPPKLLIYWASTRESGVPDRFTGSGSGTDFTLTISSLQAEDLAVYYCQNDYSLTFGAGTKLELK
B7: SC16.121 (antibody, V domains shown)
VH: EVQLVESGGGLVQPKGSLKLSCAASGFTFNTYAMNWVRQAPGKGLEWVARIRIKSNNYATYYADSVKDRFTISRDDSQNMLYLQMNNLKTEDTAVYYCVRQGYSYDWGPWFAYWGQGTLVTVSA
VL: QIVLTQSPAIMSASPGEKVTITCSASSSVSYMHWFQQKPGTSPKLWIYSTSNLASGVPARFSGSGSGTSYSLTISRMEAEDAATYYCQQRSSYPPTFGGGTKLEIK
B8: SC16.123 (antibody, V domains shown)
VH: QVALKESGPGILQPSQTLSLTCSFSGFSLSTSGMGVGWIRQPSGKGLEWLAHIWWDDVKRYNPALKSRLTISKDTSSSQVFLKIASVDTADTATYYCARMEDYGSSSYFDFWGHGTTLTVSS
VL: QIVLTQSPAIMSASLGERVTMTCTASSSVSSSYLHWYQQKPGSSPKLWIYSTSNLASGVPARFSGSGSGTSYSLTISSMETEDAATYYCHQYHRSPFTFGSGTKLEIK
B9: SC16.124 (antibody, V domains shown)
VH: EVQLQQSGPELVKPGASVKMSCKASGYTFTSYVMHWVKQKPGQGLEWIGYINPYNDGTKYNEKFKGKATLTSDKSSSTAYMELSSLTSEDSAVYYCARGALYYGNYLGYFDVWGAGTTVTVSS
VL: DIQMTQSPASQSASLGESVTITCLASQTIGTWLAWYQQKPGKSPQLLISAATSLADGVPSRFSGSGSGTKFSFKISSLQAEDFVSYYCQQLYSTPWTFGGGTKLEIK
B10: SC16.126 (antibody, V domains shown)
VH: QVQMKESGPGLVAPSQSLSITCTVSGSSLTNYGVHWVRQPPGKGLEWLGVIWAGGSTNYNSALMSRLSISKDNSKSQVFLKMNSLQTDDTAMYYCARDWEGWFAYWGQGTLVTVSA
VL: DIQMNQSPSSLSASLGDTITITCHASQNINVWLSWYQQKPGNIPKLLIYKASNLHTGVPSRFSGSGSGTGFTLTISSLQPEDIATYYCQQGQSYPFTFGSGTKLEIK
B11: SC16.130 (antibody, V domains shown)
VH: EVQLQQSGPELVKPGASVKMSCKASGYTFTSYVMHWVKQKPGQGLEWIGYINPYNDGTEYNEKFKGKATLTSDKSSSTAYMELSSLTSEDSAVYYCARGVYDGYSYFDYWGQGTTLTVSS
VL: DIQLTQSPASLSASVGETVTITCRASGSIHNYLAWYQQKQGKSPQLLVYNAKTLVDGVPSRFSGSGSGTQYSLKINSLQPEDFGYYYCQHFWTTPWTFGGGTKLEIK
B12: SC16.132 (antibody, V domains shown)
VH: QVQLKESGPGLVAPSQSLSITCTVSGFSLTDYGVSWIRQPPGKGLEWLGVVWGGGSTYYNSALKSRLSITKDNSKSQVFLKMNSLQTDDTAMYYCAKQRGQYGAYWGQGTLVTVSA
VL: B9 VL with S49Y
B13: SC16.133 (antibody, V domains shown)
VH: QVQLKESGPGLVAPSQSLSITCTVSGFSLTNYAVHWVRQSPGKGLEWLGVIWSDGSTDYNAAFISRLSISKDNSKSQVFFKMNSLQADDTAMYYCARKKGGWFPWFAYWGQGTLVTVSA
VL: B3 VL with N1S, Y50C, P96L, G100A, I106L
B14: SC16.135 (antibody, V domains shown)
VH: QVQLQQSGAELVRPGTSVKVSCKASGYAFTNYLIEWVKQRPGQGLEWIGVINPGSGGTNSNEKFKAKATLTADKSSSTAYMQLSSLTSADSAVYFCARSDYDYAFYAMDYWGQGTSVTVSS
VL: DIKMTQSPSSMYASLGERVTITCKASQDINRYLSWFQQKPGKSPKTLIYRANRLVDGVPSRFSGSGSGQDYSLTISSLEYEDMGIYYCLQYDEFPFTFGSGTKLEIK
B15: SC16.137 (antibody, V domains shown)
VH: EVQLVESGGDLVKPGGSLKLSCAASGFTFSSYGMSWVRQTPDKRLEWVATISSGGSYTYYPDSVKGRFTISRDNAKNTLYLQMSSLKSEDTAMYYCARRRADAMDYWGQGTSVTVSS
VL: QIVLTQSPAIMSASLGEEITLTCSASSSVSYMHWYQQKSGTSPKLLIYSTSNLASGVPSRFSGSGSGTFYSLTISSVEAEDAADYYCHQWSSYHTFGGGTKLEIKR
B16: SC16.138 (antibody, V domains shown)
VH: B12 VH with T70S
VL: B9 VL with S49Y, A50S
B17: SC16.139 (antibody, V domains shown)
VH: B1 VH
VL: B1 VL with V104L
B18: SC16.140 (antibody, V domains shown)
VH: QVQLQQSGPELVRPGASVKMSCKASGYTFTSYWMHWVKQRPGQGLEWIGMIDPSNSETRLNQKFKDKATLNVDKSSNTAYMQLSSLTSEDSAVYYCAVMDYYFDYWGQGTTLTVSS
VL: DIVLTQSLASLAVSLGQRATISCRASKSVSTSGYSYMHWYQQKPGQPPKLLIYLASNLESGVPARFSGSGSGTDFTLNIHPVEDEDAATYYCQHSRELPFTFGGGTKLEIK
B19: SC16.141 (antibody, V domains shown)
VH: QVQLKQSGPGLVAPSQSLFITCTVSGFSLTSYEINWVRQPPGKGLEWLGVIWTGGSTNYNSALISRLSISKDNSKSLVFLKMNSLQTDDTAIYYCVRGVYAMDYWGQGTSVTVSS
VL: B14 VL with R31S
B20: SC16.143 (antibody, V domains shown)
VH: QVQLQQSGPELVKPGASVRISCKASGYTFTSYYIHWVKQRPGQGLEWIGWIYPGNGNTKYNEKFKGKATLTADKSSSTAYMQISSLTSEDSAVYFCARERWLLLWFAYWGQGTLVTVSA
VL: DVLMTQTPLSLPVSLGDQASISCRSSQSIVHSNGNTYLEWYLQKPGQSPKLLIYKVSNRFSGVPDRFSGSGSGTDFTLKISRVEAEDLGVYYCFQGSHVPLTFGAGTKLELK
B21: SC16.144 (antibody, V domains shown)
VH: QIQLVQSGPELKKPGETVKISCKASGYTFTNYGMNWVKQAPGKGLKWVGWINTYTGEPTYADDFKGRFAFSLETSASTAYLQIDNLKNEDTATYFCARVGDYVGFDYWGQGTTLTVSS
VL: B3 VL with N1S, A34G, T56N, P96W
B22: SC16.147 (antibody, V domains shown)
VH: QIQLVQSGPELTKPGETVKISCKASGYTFTDYSLHWVKQALGKGLKWMGWINTETGEPAYADDFKGRFAFSLETSASTAYLQINDLKNEDTTTYFCGIYDGYAMDYWGQGTSVTVSS
VL: DIQMTQTASSLSASLGDRVTISCRASQDINNYLNWYQQKPDGTVKLLIYYTSRLHSGVPSRFSGSGSGTDYSLTISILEQEDIATYFCQQGDTLPWTFGGGTKLEIK

Each binder was assayed against DLL3 (UniProt Q9NYJ7) (assay: screening on immobilized DLL3 or 293-hDLL3 cells).

With B1 as the binder, how does the binding read?
Its binding is “binds”.

B2 was tested. Which binding did it give?
The binding was “binds”.

B3 was tested. Which binding did it give?
The binding was “binds”.

For B4, which binding is on record?
The binding was “binds”.

How did the binding turn out when B5 was run?
Its binding is “binds”.

Which binding does the source give for B6 here?
Its binding is “binds”.

How did the binding turn out when B7 was run?
The binding was “binds”.

With B8 as the binder, how does the binding read?
Its binding is “binds”.

How did the binding turn out when B9 was run?
The binding was “binds”.

Which binding does the source give for B10 here?
Its binding is “binds”.

How did the binding turn out when B11 was run?
Its binding is “binds”.

Which binding does the source give for B12 here?
The binding was “binds”.

With B13 as the binder, how does the binding read?
The binding was “binds”.

With B14 as the binder, how does the binding read?
Its binding is “binds”.

For B15, which binding is on record?
The binding was “binds”.

With B16 as the binder, how does the binding read?
The binding was “binds”.

How did the binding turn out when B17 was run?
The binding was “binds”.

B18 was tested. Which binding did it give?
Its binding is “binds”.

For B19, which binding is on record?
Its binding is “binds”.

For B20, which binding is on record?
Its binding is “binds”.

With B21 as the binder, how does the binding read?
The binding was “binds”.

With B22 as the binder, how does the binding read?
The binding was “binds”.
